Measured values as given in patent publication US20110306105A1 (University of California, published 2011).
No constants are given. Whether binding was seen depends on the method and setting. Some results given as binding are weak or reduced against the parent protein; the word gives no strength.

Target: scaffoldin Scaf-ct displayed on the yeast cell surface (chimeric: C. cellulolyticum, C. thermocellum)
Assay: immunofluorescence microscopy with anti-His6, yeast displaying Scaf-ct

In the case of “endoglucanase CelA fused with a dockerin domain from C. thermocellum (At), His6-tagged, from E. coli (from UniProt A3DC29 33-477) (enzyme)”, the binding is reported as “binds”.
